# ChEMBL document CHEMBL1255264, “Mechanism-based pharmacokinetic-pharmacodynamic models of in vitro fungistatic and fungicidal effects against Candida albicans” (Antimicrob Agents Chemother, 2008)
# System: Candida albicans
# Assay: Antifungal activity against Candida albicans ATCC 3153 after 48 hrs
# Type: functional
# Details: ATCC 3153, 48 h
structure (smiles),measurement,value
OC(Cn1cncn1)(Cn1cncn1)c1ccc(F)cc1F [FLUCONAZOLE],MIC,1.56 µg/mL
